Taken from: PubChem BioAssay AID652248 (Drosophila RNAi Screening Center, 2013)
Aim: 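Kinases and phosphatases whose loss pushes fly blood cells toward elongated shapes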 (primary screen). System: cultured Drosophila hemocytes. Reagent: long dsRNA against Drosophila genes. Measured: 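Automated microscopy of stained actin, tubulin and nuclei; single-cell shape measures assigned to five reference shape types, giving a score per dsRNA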. Scale: elongated score: higher = more elongated bipolar cells; normal round score: higher = more normal rounded cells. Rule for the call: 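Hits show a significant increase of elongated cells; higher rank given where elongated cells rose as other shape types fell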.
This is an unselected part of 863 reagents. 32 of all reagents (3.7%) were called active. 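Calls also used reproducibility and a similarity ranking whose scores are not deposited; many active genes show only modest elongated scores.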 Not all columns of the deposit are shown. No sequences are given here. The record does not give: the amount of reagent, the time to read-out.

What did the screen give for CG7069 [DRSC16188]?
elongated score, rep 1: -0.35; normal round score, rep 1: 0.68; activity call: inactive

What did the screen give for Adk1 [DRSC15514]?
elongated score, rep 1: -0.53; elongated score, rep 2: -0.53; normal round score, rep 1: 0.36; activity call: inactive

For drl [DRSC03523], what does the deposit list?
elongated score, rep 1: -0.27; normal round score, rep 1: -1.04; activity call: inactive

For drl [DRSC28564], how do the results read?
elongated score, rep 1: 1.3; normal round score, rep 1: -2.16; activity call: inactive

For Ak2 [DRSC04043], what was measured?
elongated score, rep 1: -0.53; normal round score, rep 1: 0.52; activity call: inactive

What did the screen give for Ak3 [DRSC16075]?
elongated score, rep 1: 0; normal round score, rep 1: -0.79; activity call: inactive

Which result is listed for Ak3 [DRSC27968]?
elongated score, rep 1: -0.25; normal round score, rep 1: -0.57; activity call: inactive

With fbl [DRSC11886], what was measured?
elongated score, rep 1: -0.53; normal round score, rep 1: -2; activity call: inactive

What did the screen give for fbl [DRSC27922]?
elongated score, rep 1: -0.43; normal round score, rep 1: -1.65; activity call: inactive

For fbl [DRSC29115], what does the deposit list?
elongated score, rep 1: 0.32; normal round score, rep 1: -0.14; activity call: inactive

What is on record for Cdk2 [DRSC16921]?
elongated score, rep 1: -0.03; normal round score, rep 1: -0.68; activity call: inactive

Which result is listed for dnt [DRSC03522]?
elongated score, rep 1: 0.18; normal round score, rep 1: -0.23; activity call: inactive

For dnt [DRSC25886], what does the deposit list?
elongated score, rep 1: -0.32; normal round score, rep 1: 0.15; activity call: inactive

For Mtmr6 [DRSC04046], how do the results read?
elongated score, rep 1: -0.44; normal round score, rep 1: -0.57; activity call: inactive

What is on record for Mtmr6 [DRSC26569]?
elongated score, rep 1: 1.48; normal round score, rep 1: -1.53; activity call: inactive

How did the screen score CG8726 [DRSC07250]?
elongated score, rep 1: 0.12; normal round score, rep 1: 0.32; activity call: inactive

How did the screen score CG8726 [DRSC26566]?
elongated score, rep 1: 6.07; normal round score, rep 1: -4.48; activity call: inactive

Which result is listed for CASK [DRSC14588]?
elongated score, rep 1: 1.68; elongated score, rep 2: 0.61; normal round score, rep 1: -0.8; activity call: inactive

For CASK [DRSC16597], what does the deposit list?
elongated score, rep 1: -0.38; normal round score, rep 1: -0.35; activity call: inactive

For CASK [DRSC16598], what was measured?
elongated score, rep 1: 0.08; normal round score, rep 1: -0.14; activity call: inactive

What is on record for CASK [DRSC21917]?
elongated score, rep 1: 1.53; normal round score, rep 1: -1.58; activity call: inactive

For CASK [DRSC29057], what was measured?
elongated score, rep 1: 3.77; normal round score, rep 1: -1.98; activity call: inactive

With Pi3K21B [DRSC00771], what does the deposit list?
elongated score, rep 1: -0.18; normal round score, rep 1: -0.39; activity call: inactive

Which result is listed for htl [DRSC16968]?
elongated score, rep 1: -0.13; normal round score, rep 1: 0.41; activity call: inactive

With Stam [DRSC03444], how do the results read?
elongated score, rep 1: 0.05; normal round score, rep 1: 0.35; activity call: inactive

For Stam [DRSC25607], how do the results read?
elongated score, rep 1: -0.32; normal round score, rep 1: -4.17; activity call: inactive

For mtm [DRSC03576], how do the results read?
elongated score, rep 1: -0.53; normal round score, rep 1: 0.56; activity call: inactive

What did the screen give for Prp4k [DRSC08144]?
elongated score, rep 1: 2.16; normal round score, rep 1: -0.42; activity call: inactive

With Prp4k [DRSC27510], how do the results read?
elongated score, rep 1: 2.25; normal round score, rep 1: -2.85; activity call: inactive

With PpD3 [DRSC16796], how do the results read?
elongated score, rep 1: -0.41; normal round score, rep 1: -0.21; activity call: inactive

With ninaC [DRSC03579], how do the results read?
elongated score, rep 1: -0.53; normal round score, rep 1: 0.31; activity call: inactive

What did the screen give for ninaC [DRSC29875]?
elongated score, rep 1: 3.41; normal round score, rep 1: -0.36; activity call: inactive

With CG12746 [DRSC12218], what was measured?
elongated score, rep 1: -0.53; normal round score, rep 1: 0.42; activity call: inactive

Which result is listed for tws [DRSC12767]?
elongated score, rep 1: 0.45; normal round score, rep 1: -1.23; activity call: inactive

What did the screen give for tws [DRSC17092]?
elongated score, rep 1: -0.13; normal round score, rep 1: -0.41; activity call: inactive

Which result is listed for tws [DRSC27776]?
elongated score, rep 1: 2.11; normal round score, rep 1: -1.75; activity call: inactive
